Results are given in words; binding and its absence hold for the method and conditions named. In cells and extracts the contact can be indirect. Here binding means that the protein was enriched with, or labelled near, the bait; the list need not be complete.
T1: Developmental pluripotency-associated 3 (mouse (endogenous in mouse ES cells)) (UniProt Q8QZY3)
T1 sequence: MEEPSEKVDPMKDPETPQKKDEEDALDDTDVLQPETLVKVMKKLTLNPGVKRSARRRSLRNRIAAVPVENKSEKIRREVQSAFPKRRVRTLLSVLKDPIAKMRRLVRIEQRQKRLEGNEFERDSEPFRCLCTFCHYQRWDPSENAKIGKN

Chains of the proteins cited; added tags and fusions are not shown. Lines headed by an entry give the natural chain unless they say otherwise; changes in a name come on top.
UniProt Q9QUM9: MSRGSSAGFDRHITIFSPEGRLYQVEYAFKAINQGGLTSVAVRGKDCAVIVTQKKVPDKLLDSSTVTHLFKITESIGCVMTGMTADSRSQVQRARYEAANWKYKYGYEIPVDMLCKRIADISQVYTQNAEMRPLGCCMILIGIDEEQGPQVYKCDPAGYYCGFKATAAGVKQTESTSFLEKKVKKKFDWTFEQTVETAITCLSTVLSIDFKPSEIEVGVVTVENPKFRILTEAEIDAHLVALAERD
UniProt Q9Z2U1: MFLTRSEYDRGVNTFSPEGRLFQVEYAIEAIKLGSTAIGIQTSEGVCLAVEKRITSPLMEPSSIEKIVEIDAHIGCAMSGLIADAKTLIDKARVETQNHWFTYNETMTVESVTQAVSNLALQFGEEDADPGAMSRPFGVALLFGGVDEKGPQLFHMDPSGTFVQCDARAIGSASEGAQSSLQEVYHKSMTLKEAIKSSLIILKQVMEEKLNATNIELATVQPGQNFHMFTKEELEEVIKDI
UniProt O88685: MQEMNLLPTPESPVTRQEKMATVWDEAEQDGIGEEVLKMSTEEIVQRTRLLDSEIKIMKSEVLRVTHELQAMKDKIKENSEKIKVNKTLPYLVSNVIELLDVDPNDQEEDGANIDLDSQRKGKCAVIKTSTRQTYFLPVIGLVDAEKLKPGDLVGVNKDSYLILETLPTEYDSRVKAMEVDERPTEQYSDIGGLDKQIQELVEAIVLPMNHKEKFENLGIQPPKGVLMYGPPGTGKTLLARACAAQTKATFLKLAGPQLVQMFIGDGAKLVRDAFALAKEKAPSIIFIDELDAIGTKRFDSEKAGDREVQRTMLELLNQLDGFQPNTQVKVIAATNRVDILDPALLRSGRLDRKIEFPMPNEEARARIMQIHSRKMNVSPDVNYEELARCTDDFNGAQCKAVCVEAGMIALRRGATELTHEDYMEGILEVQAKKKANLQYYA
UniProt Q9R1P4: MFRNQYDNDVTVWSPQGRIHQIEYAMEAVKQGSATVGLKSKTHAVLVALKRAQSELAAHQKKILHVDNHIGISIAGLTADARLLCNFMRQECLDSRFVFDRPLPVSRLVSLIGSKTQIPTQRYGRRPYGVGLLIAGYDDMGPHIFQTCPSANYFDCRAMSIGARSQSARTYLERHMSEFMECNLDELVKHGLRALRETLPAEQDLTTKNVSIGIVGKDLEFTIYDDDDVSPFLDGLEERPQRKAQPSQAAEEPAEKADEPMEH
UniProt O09061: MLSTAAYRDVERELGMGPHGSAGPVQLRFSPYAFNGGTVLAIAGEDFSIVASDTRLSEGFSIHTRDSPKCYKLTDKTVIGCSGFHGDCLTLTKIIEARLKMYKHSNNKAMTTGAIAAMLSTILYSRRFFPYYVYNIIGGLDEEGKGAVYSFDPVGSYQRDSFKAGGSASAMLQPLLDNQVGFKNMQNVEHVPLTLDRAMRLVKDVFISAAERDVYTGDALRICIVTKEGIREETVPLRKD
UniProt Q9Z2U0: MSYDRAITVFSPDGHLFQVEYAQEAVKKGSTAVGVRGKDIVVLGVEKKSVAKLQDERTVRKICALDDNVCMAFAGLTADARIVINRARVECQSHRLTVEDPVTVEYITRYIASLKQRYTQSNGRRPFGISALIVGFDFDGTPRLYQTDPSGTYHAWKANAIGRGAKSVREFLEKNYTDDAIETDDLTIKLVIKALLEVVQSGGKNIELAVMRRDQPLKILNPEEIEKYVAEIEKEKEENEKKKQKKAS

B1: Nsflc (protein, UniProt Q9CZ44 1-370)
chain: MAEERQDALREFVAVTGTEEDRARFFLESAGWDLQIALASFYEDGGDEDIVTISQATPSSVSRGTAPSDNRVTSFRDLIHDQDEEEEEEEGQRFYAGGSERSGQQIVGPPRKKSPNELVDDLFKGAKEHGAVAVERVTKSPGETSKPRPFAGGGYRLGAAPEEESAYVAGERRRHSGQDVHVVLKLWKTGFSLDNGDLRSYQDPSNAQFLESIRRGEVPAELRRLAHGGQVNLDMEDHRDEDFVKPKGAFKAFTGEGQKLGSTAPQVLNTSSPAQQAENEAKASSSILINEAEPTTNIQIRLADGGRLVQKFNHSHRISDIRLFIVDARPAMAATSFVLMTTFPNKELADENQTLKEANLLNAVIVQRLT
B2: Psmd7 (protein, UniProt P26516 1-321)
chain: MPELAVQKVVVHPLVLLSVVDHFNRIGKVGNQKRVVGVLLGSWQKKVLDVSNSFAVPFDEDDKDDSVWFLDHDYLENMYGMFKKVNARERIVGWYHTGPKLHKNDIAINELMKRYCPNSVLVIIDVKPKDLGLPTEAYISVEEVHDDGTPTSKTFEHVTSEIGAEEAEEVGVEHLLRDIKDTTVGTLSQRITNQVHGLKGLNSKLLDIRSYLEKVASGKLPINHQIIYQLQDVFNLLPDASLQEFVKAFYLKTNDQMVVVYLASLIRSVVALHNLINNKIANRDAEKKEGQEKEESKKERKDDKEKEKSDAAKKEEKKEKK
B3: proteasome α7 subunit (protein, UniProt O70435 1-255)
chain: MSSIGTGYDLSASTFSPDGRVFQVEYAMKAVENSSTAIGIRCKDGVVFGVEKLVLSKLYEEGSNKRLFNVDRHVGMAVAGLLADARSLADIAREEASNFRSNFGYNIPLKHLADRVAMYVHAYTLYSAVRPFGCSFMLGSYSANDGAQLYMIDPSGVSYGYWGCAIGKARQAAKTEIEKLQMKEMTCRDVVKEVAKIIYIVHDEVKDKAFELELSWVGELTKGRHEIVPKDIREEAEKYAKESLKEEDESDDDNM
B4: proteasome α2 subunit (protein, UniProt P49722 1-234)
chain: MAERGYSFSLTTFSPSGKLVQIEYALAAVAGGAPSVGIKAANGVVLATEKKQKSILYDERSVHKVEPITKHIGLVYSGMGPDYRVLVHRARKLAQQYYLVYQEPIPTAQLVQRVASVMQEYTQSGGVRPFGVSLLICGWNEGRPYLFQSDPSGAYFAWKATAMGKNYVNGKTFLEKRYNEDLELEDAIHTAILTLKESFEGQMTEDNIEVGICNEAGFRRLTPTEVRDYLAAIA

Biological target: T1, Developmental pluripotency-associated 3 (mouse (endogenous in mouse ES cells))
Assay: affinity purification with mass spectrometry; IP-MS from mouse ES cell lysate; enriched by anti-Dppa3 antibody (results, legend); methods: IP buffer 50 mM Tris pH 7.4, 150 mM NaCl, 1% Triton X100, anti-FLAG M2 affinity gel at 4 °C, washes with 500 mM NaCl, elution with FLAG peptide, LC-MS/MS

| binding | Molecule |
| --- | --- |
| binds | proteasome α1 subunit (from UniProt Q9QUM9 1-246) |
| binds | proteasome α5 subunit (from UniProt Q9Z2U1 1-241) |
| binds | regulatory particle triple-ATPase Rpt5 (from UniProt O88685 1-442) |
| binds | proteasome α6 subunit (from UniProt Q9R1P4 1-263) |
| binds | proteasome β6 subunit (from UniProt O09061) |
| binds | proteasome α4 subunit (from UniProt Q9Z2U0 1-248) |
| binds | B1 |
| binds | B2 |
| binds | B3 |
| binds | B4 |
